This is an account of results in paper PMC2800044.

No constants are given. Whether binding was seen depends on the method and setting. In cells and extracts the contact can be indirect. Some binding calls cover weakened binding; strength is not graded here.

The assay concerns the target T1, TgGAP45 (Toxoplasma gondii (endogenous in tachyzoites)) (UniProt Q7Z289).
T1 sequence: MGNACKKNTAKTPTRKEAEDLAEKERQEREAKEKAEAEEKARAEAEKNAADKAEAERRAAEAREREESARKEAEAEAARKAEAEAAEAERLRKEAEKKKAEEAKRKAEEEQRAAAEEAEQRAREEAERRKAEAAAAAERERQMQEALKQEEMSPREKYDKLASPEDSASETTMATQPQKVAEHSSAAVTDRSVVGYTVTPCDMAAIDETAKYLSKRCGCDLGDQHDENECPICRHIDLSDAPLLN
Kind of assay: co-IP; anti-TgGAP45 immunoprecipitation (protein A or G Sepharose) from 1% TX-100 extracts (50 mM Tris-Cl pH 8, 150 mM NaCl, 5 mM EDTA, 4°C) of 35S-labeled extracellular parasites treated with DMSO, 100 µM tachypleginA or other compounds; SDS-PAGE or 2D gel, autoradiography, anti-TgMLC1 western ….

In the case of “TgMyoA, unconventional Class XIV myosin of Toxoplasma gondii (from UniProt O00934 1-831)”, the binding result is listed as “binds”.
